What was measured:
[1] = in vitro; settings: African green monkey
[2] = tested on: MDCK and A549 cells; settings: cited from earlier work

SMILES: COc1ccc2cc([C@H](C)C(=O)O)ccc2c1 [Naproxen, naproxen]
- CC50 [1]: > 1000 µM
- CC50 [2]: 1600 ± 300 µM
